# Measurements from US12329158B2, “Large-scale methods of uniformly coating packaging surfaces with a volatile antimicrobial to preserve food freshness” (AGROFRESH INC., priority 2013, dated 2025).
# Further values from the same series stand in other lists.
# Columns and labels:
# Assay type in all cases: in vivo
# Botrytis cinerea [1] = experiment: In-clamshell Compound A applied by painting, spraying or sublimation; strawberries (Example 1); settings: 5 mg/clamshell
# Procedure: An in vivo assay was used to evaluate the ability of Compound A to volatilize from a clamshell chamber and control pathogenic infection when applied by various techniques. Multiple empty 1-lb PET clamshells (ProducePackaging.com, #036QT) were placed inside triplicate air-tight 36 L chamber (Fisher Scientific, Catalogue #08-642-23C) fitted with a bulkhead septum port (Swagelok, SS-401-61, Solon, OH).
# Compound A headspace was permitted to equilibrate overnight at 21° C.
# (§1) Five milligrams of Compound A was dissolved in 1 ml of ethanol prior to being uniformly administered to the interior of the clamshell by painting or spraying, and then dried for 5 minutes. After coating the clamshells with Compound A using various application techniques (i.e., sublimation, spraying, or painting), eight ethanol-washed strawberries were placed in the clamshell with stem end facing downwards. Each strawberry fruit was wounded using a T15 screwdriver tip to a uniform depth of eight mm (8 mm). […] Uninoculated strawberries were removed from their commercial package, and directly transferred into treated clamshells without any washing or inoculation steps.
# (§2) Treated clamshells lids were closed, and then placed at 1° C. for an initial time period of 5 days. Clamshells were then removed from low temperature, and held for a second time period of 6 days at room temperature where the point of inoculation on the strawberry fruits was assessed for indication of disease incidence reported as a percentage (%). Severity of disease incidence was also reported.
# Botrytis cinerea [2] = experiment: Dose response, sprayed clamshells; strawberries (Example 4); settings: Uninoculated Fruit, spraying
# Procedure: as §1, §2
# This in vivo assay was used to evaluate the ability of different concentrations of Compound A to volatilize from clamshell in order to control or inhibit fruit infection by pathogenic microorganism, Botrytis cinerea. This experiment was conducted exactly as described in Example 1, with a few exceptions. After equilibrating the clamshell overnight at 21° C., Compound A was administered to the clamshells by spraying only. Compound A was sprayed onto the surface of the clamshells at a final treatment rate of 5 mg/clamshell or 1 mg/clamshell. The clamshells were then permitted to dry for 5 minutes. Strawberries were inoculated with Botrytis cinerea, placed within the clamshells for the initial time period (i.e., 5 days), and assessed for disease incidence and severity over the second time period (i.e., 6 days) as described in Example 1.
# Botrytis cinerea [3] = experiment: Painting on base, lid or base and lid of clamshells; strawberries (Example 6)
# Procedure: as §1, §2
# This in vivo assay was used to evaluate the ability of Compound A to volatilize from different locations of a clamshell (i.e., the base and/or the lid of the clamshell) in order to control or inhibit fruit infection by pathogenic microorganism, Botrytis cinerea. This experiment was conducted exactly as described in Example 1, with a few exceptions. Compound A was administered to the clamshell by painting only. 5 mg of Compound A was painted onto the surface of the base of the clamshell or the lid of the clamshell (i.e., 5 mg/clamshell treatment rate). 2.5 mg of Compound A was painted onto the base and the lid of the clamshell (for a total of 5 mg/clamshell treatment rate). The clamshell was then permitted to dry for 5 minutes. Strawberries were inoculated with Botrytis cinerea, placed within the clamshell for an initial time period of 5 days, and assessed for disease incidence and severity over a second time period of 7 days as described in Example 1.
smiles,measurement,setting,value
"OB1OCc2cc(F)ccc21 [Compound A, 5-fluoro-1,3-dihydro-1-hydroxy-2,1-benzoxaborole]",Gray Mold Severity (0-4),"Botrytis cinerea [1]; Inoculated Fruit, Paint, Day 0",0.0
same,Gray Mold Severity (0-4),"Botrytis cinerea [1]; Inoculated Fruit, Paint, Day 1",0.0
same,Gray Mold Severity (0-4),"Botrytis cinerea [1]; Inoculated Fruit, Paint, Day 2",0.0
same,Gray Mold Severity (0-4),"Botrytis cinerea [1]; Inoculated Fruit, Paint, Day 3",0.0
same,Gray Mold Severity (0-4),"Botrytis cinerea [1]; Inoculated Fruit, Paint, Day 4",0.0
same,Gray Mold Severity (0-4),"Botrytis cinerea [1]; Inoculated Fruit, Paint, Day 5",0.0
same,Gray Mold Severity (0-4),"Botrytis cinerea [1]; Inoculated Fruit, Paint, Day 6",0.0
same,Gray Mold Severity (0-4),"Botrytis cinerea [1]; Inoculated Fruit, Spray, Day 0",0.0
same,Gray Mold Severity (0-4),"Botrytis cinerea [1]; Inoculated Fruit, Spray, Day 1",0.0
same,Gray Mold Severity (0-4),"Botrytis cinerea [1]; Inoculated Fruit, Spray, Day 2",0.0
same,Gray Mold Severity (0-4),"Botrytis cinerea [1]; Inoculated Fruit, Spray, Day 3",0.0
same,Gray Mold Severity (0-4),"Botrytis cinerea [1]; Inoculated Fruit, Spray, Day 4",0.0
same,Gray Mold Severity (0-4),"Botrytis cinerea [1]; Inoculated Fruit, Spray, Day 5",0.0
same,Gray Mold Severity (0-4),"Botrytis cinerea [1]; Inoculated Fruit, Spray, Day 6",0.0
same,Gray Mold Severity (0-4),"Botrytis cinerea [1]; Inoculated Fruit, Sublimation, Day 0",0.0
same,Gray Mold Severity (0-4),"Botrytis cinerea [1]; Inoculated Fruit, Sublimation, Day 1",0.0
same,Gray Mold Severity (0-4),"Botrytis cinerea [1]; Inoculated Fruit, Sublimation, Day 2",0.0
same,Gray Mold Severity (0-4),"Botrytis cinerea [1]; Inoculated Fruit, Sublimation, Day 3",0.0
same,Gray Mold Severity (0-4),"Botrytis cinerea [1]; Inoculated Fruit, Sublimation, Day 4",0.0
same,Gray Mold Severity (0-4),"Botrytis cinerea [1]; Inoculated Fruit, Sublimation, Day 5",0.0
same,Gray Mold Severity (0-4),"Botrytis cinerea [1]; Inoculated Fruit, Sublimation, Day 6",0.0
same,Gray Mold Severity (0-4),"Botrytis cinerea [1]; Uninoculated Fruit, Paint, Day 0",0.0
same,Gray Mold Severity (0-4),"Botrytis cinerea [1]; Uninoculated Fruit, Paint, Day 1",0.1
same,Gray Mold Severity (0-4),"Botrytis cinerea [1]; Uninoculated Fruit, Paint, Day 2",0.5
same,Gray Mold Severity (0-4),"Botrytis cinerea [1]; Uninoculated Fruit, Paint, Day 3",0.8
same,Gray Mold Severity (0-4),"Botrytis cinerea [1]; Uninoculated Fruit, Paint, Day 4",0.9
same,Gray Mold Severity (0-4),"Botrytis cinerea [1]; Uninoculated Fruit, Paint, Day 5",1.1
same,Gray Mold Severity (0-4),"Botrytis cinerea [1]; Uninoculated Fruit, Paint, Day 6",1.1
same,Gray Mold Severity (0-4),"Botrytis cinerea [1]; Uninoculated Fruit, Spray, Day 0",0.0
same,Gray Mold Severity (0-4),"Botrytis cinerea [1]; Uninoculated Fruit, Spray, Day 1",0.2
same,Gray Mold Severity (0-4),"Botrytis cinerea [1]; Uninoculated Fruit, Spray, Day 2",0.3
same,Gray Mold Severity (0-4),"Botrytis cinerea [1]; Uninoculated Fruit, Spray, Day 3",0.5
same,Gray Mold Severity (0-4),"Botrytis cinerea [1]; Uninoculated Fruit, Spray, Day 4",0.7
same,Gray Mold Severity (0-4),"Botrytis cinerea [1]; Uninoculated Fruit, Spray, Day 5",1.2
same,Gray Mold Severity (0-4),"Botrytis cinerea [1]; Uninoculated Fruit, Spray, Day 6",1.3
same,Gray Mold Severity (0-4),"Botrytis cinerea [1]; Uninoculated Fruit, Sublimation, Day 0",0.0
same,Gray Mold Severity (0-4),"Botrytis cinerea [1]; Uninoculated Fruit, Sublimation, Day 1",0.1
same,Gray Mold Severity (0-4),"Botrytis cinerea [1]; Uninoculated Fruit, Sublimation, Day 2",0.3
same,Gray Mold Severity (0-4),"Botrytis cinerea [1]; Uninoculated Fruit, Sublimation, Day 3",0.7
same,Gray Mold Severity (0-4),"Botrytis cinerea [1]; Uninoculated Fruit, Sublimation, Day 4",0.9
same,Gray Mold Severity (0-4),"Botrytis cinerea [1]; Uninoculated Fruit, Sublimation, Day 5",1.1
same,Gray Mold Severity (0-4),"Botrytis cinerea [1]; Uninoculated Fruit, Sublimation, Day 6",1.3
same,Gray Mold Severity (0-4),"Botrytis cinerea [2]; 1 mg/clamshell, Day 0",0.0
same,Gray Mold Severity (0-4),"Botrytis cinerea [2]; 1 mg/clamshell, Day 1",0.5
same,Gray Mold Severity (0-4),"Botrytis cinerea [2]; 1 mg/clamshell, Day 2",1.8
same,Gray Mold Severity (0-4),"Botrytis cinerea [2]; 1 mg/clamshell, Day 3",3.6
same,Gray Mold Severity (0-4),"Botrytis cinerea [2]; 1 mg/clamshell, Day 4",4.0
same,Gray Mold Severity (0-4),"Botrytis cinerea [2]; 1 mg/clamshell, Day 5",4.0
same,Gray Mold Severity (0-4),"Botrytis cinerea [2]; 1 mg/clamshell, Day 6",4.0
same,Gray Mold Severity (0-4),"Botrytis cinerea [2]; 5 mg/clamshell, Day 3",0.5
same,Gray Mold Severity (0-4),"Botrytis cinerea [2]; 5 mg/clamshell, Day 4",1.0
same,Gray Mold Severity (0-4),"Botrytis cinerea [2]; 5 mg/clamshell, Day 5",1.4
same,Gray Mold Incidence (%),"Botrytis cinerea [3]; Inoculated Fruit, painted on Base, 5 mg, Day 0",0.0%
same,Gray Mold Incidence (%),"Botrytis cinerea [3]; Inoculated Fruit, painted on Base, 5 mg, Day 1",0.0%
same,Gray Mold Incidence (%),"Botrytis cinerea [3]; Inoculated Fruit, painted on Base, 5 mg, Day 2",12.5%
same,Gray Mold Incidence (%),"Botrytis cinerea [3]; Inoculated Fruit, painted on Base, 5 mg, Day 3",12.5%
same,Gray Mold Incidence (%),"Botrytis cinerea [3]; Inoculated Fruit, painted on Base, 5 mg, Day 4",0.0%
same,Gray Mold Incidence (%),"Botrytis cinerea [3]; Inoculated Fruit, painted on Base, 5 mg, Day 5",0.0%
same,Gray Mold Incidence (%),"Botrytis cinerea [3]; Inoculated Fruit, painted on Base, 5 mg, Day 6",18.8%
same,Gray Mold Incidence (%),"Botrytis cinerea [3]; Inoculated Fruit, painted on Lid, 5 mg, Day 0",0.0%
same,Gray Mold Incidence (%),"Botrytis cinerea [3]; Inoculated Fruit, painted on Lid, 5 mg, Day 1",0.0%
same,Gray Mold Incidence (%),"Botrytis cinerea [3]; Inoculated Fruit, painted on Lid, 5 mg, Day 2",0.0%
same,Gray Mold Incidence (%),"Botrytis cinerea [3]; Inoculated Fruit, painted on Lid, 5 mg, Day 3",0.0%
same,Gray Mold Incidence (%),"Botrytis cinerea [3]; Inoculated Fruit, painted on Lid, 5 mg, Day 4",0.0%
same,Gray Mold Incidence (%),"Botrytis cinerea [3]; Inoculated Fruit, painted on Lid, 5 mg, Day 5",0.0%
same,Gray Mold Incidence (%),"Botrytis cinerea [3]; Inoculated Fruit, painted on Lid, 5 mg, Day 6",0.0%
same,Gray Mold Incidence (%),"Botrytis cinerea [3]; Inoculated Fruit, painted on Lid, 5 mg, Day 7",0.0%
same,Gray Mold Incidence (%),"Botrytis cinerea [3]; Uninoculated Fruit, painted on Base and Lid, 2.5/2.5 mg, Day 0",0.0%
same,Gray Mold Incidence (%),"Botrytis cinerea [3]; Uninoculated Fruit, painted on Base and Lid, 2.5/2.5 mg, Day 1",0.0%
same,Gray Mold Incidence (%),"Botrytis cinerea [3]; Uninoculated Fruit, painted on Base and Lid, 2.5/2.5 mg, Day 2",0.0%
same,Gray Mold Incidence (%),"Botrytis cinerea [3]; Uninoculated Fruit, painted on Base and Lid, 2.5/2.5 mg, Day 3",1.1%
same,Gray Mold Incidence (%),"Botrytis cinerea [3]; Uninoculated Fruit, painted on Base and Lid, 2.5/2.5 mg, Day 4",7.8%
same,Gray Mold Incidence (%),"Botrytis cinerea [3]; Uninoculated Fruit, painted on Base and Lid, 2.5/2.5 mg, Day 5",23.3%
same,Gray Mold Incidence (%),"Botrytis cinerea [3]; Uninoculated Fruit, painted on Base and Lid, 2.5/2.5 mg, Day 6",33.3%
same,Gray Mold Incidence (%),"Botrytis cinerea [3]; Uninoculated Fruit, painted on Base and Lid, 2.5/2.5 mg, Day 7",52.2%
same,Gray Mold Incidence (%),"Botrytis cinerea [3]; Uninoculated Fruit, painted on Base, 5 mg, Day 5",10.0%
same,Gray Mold Incidence (%),"Botrytis cinerea [3]; Uninoculated Fruit, painted on Base, 5 mg, Day 6",26.7%
same,Gray Mold Incidence (%),"Botrytis cinerea [3]; Uninoculated Fruit, painted on Base, 5 mg, Day 7",41.1%
same,Gray Mold Incidence (%),"Botrytis cinerea [3]; Uninoculated Fruit, painted on Lid, 5 mg, Day 0",0.0%
same,Gray Mold Incidence (%),"Botrytis cinerea [3]; Uninoculated Fruit, painted on Lid, 5 mg, Day 1",0.0%
same,Gray Mold Incidence (%),"Botrytis cinerea [3]; Uninoculated Fruit, painted on Lid, 5 mg, Day 2",0.0%
same,Gray Mold Incidence (%),"Botrytis cinerea [3]; Uninoculated Fruit, painted on Lid, 5 mg, Day 3",1.1%
same,Gray Mold Incidence (%),"Botrytis cinerea [3]; Uninoculated Fruit, painted on Lid, 5 mg, Day 4",18.9%
same,Gray Mold Incidence (%),"Botrytis cinerea [3]; Uninoculated Fruit, painted on Lid, 5 mg, Day 5",27.8%
same,Gray Mold Incidence (%),"Botrytis cinerea [3]; Uninoculated Fruit, painted on Lid, 5 mg, Day 6",45.6%
same,Gray Mold Incidence (%),"Botrytis cinerea [3]; Uninoculated Fruit, painted on Lid, 5 mg, Day 7",64.4%
